These are yes or no findings as the source states them, for the method shown. In cells and extracts the contact can be indirect. Some results given as binding are weak or reduced against the parent protein; the word gives no strength. Tags and fused reporters may be left off the sequences shown.
Target: T1, Flag-SNAPIN (Snapin full length in PCDH-3xFlag-3xHA-EF1-puromycin vector) (UniProt Q9Z266)
T1 sequence: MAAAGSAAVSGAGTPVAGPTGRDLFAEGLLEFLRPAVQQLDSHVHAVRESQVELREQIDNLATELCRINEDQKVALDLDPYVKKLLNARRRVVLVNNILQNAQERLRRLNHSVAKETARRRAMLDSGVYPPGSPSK
Assay: co-IP; Flag-SNAPIN in Min6 lysate (1% Triton X-100, 50 mM Tris-HCl pH 7.4, 150 mM NaCl, 1 mM EDTA, 1% sodium deoxycholate) on Flag beads, eluted with Flag peptide; Western blotting

B1: Bloc1s1 (protein, UniProt O55102 1-125)
chain: MLSRLLKEHQAKQNERKELQEKRRREAIAAATCLTEALVDHLNVGVAQAYMNQRKLDHEVKTLQVQAAQFAKQTGQWIGMVENFNQALKEIGDVENWARSIELDMRTIATALEYVYKGQLQSAPS
- binding: binds
